From patent US20220273678A1 (priority 2020, published 2022)

System: SARS-CoV-2
Test: microbe, parasite or virus in culture
Type: cell-based
Settings: Severe acute respiratory syndrome coronavirus 2, Calu-3, 48 h; read-out: IC50 (FIG. 1-i)

`CCC(CC)COC(=O)[C@H](C)N[P@](=O)(OC[C@H]1O[C@@](C#N)(c2ccc3c(N)ncnn23)[C@H](O)[C@@H]1O)Oc1ccccc1` [remdesivir] gave an IC50 of 330 nM.
